Test system: mTOR effectors 4EBP1, p70S6K1/2 and AKT
Test: Western blot of downstream mTOR effectors in PC3 cells
Assay type: cell-based, human
Settings: PP242 2.5 μM, rapamycin 50 nM, 3-h treatment

`CC(C)n1nc(-c2cc3cc(O)ccc3[nH]2)c2c(N)ncnc21` [PP242] was tested, and the “activity of downstream mTOR effectors 4EBP1, p70S6K1/2 and AKT” value was “significantly inhibits”.

Source: PMC3663483 (Nature, 2012)
